Test results published in paper PMC5059712.
Results are given in words; binding and its absence hold for the method and conditions named. In cells and extracts the contact can be indirect. Some results given as binding are weak or reduced against the parent protein; the word gives no strength.

By UniProt entry, the sequences of proteins in these tests, tags left out.
UniProt P35637: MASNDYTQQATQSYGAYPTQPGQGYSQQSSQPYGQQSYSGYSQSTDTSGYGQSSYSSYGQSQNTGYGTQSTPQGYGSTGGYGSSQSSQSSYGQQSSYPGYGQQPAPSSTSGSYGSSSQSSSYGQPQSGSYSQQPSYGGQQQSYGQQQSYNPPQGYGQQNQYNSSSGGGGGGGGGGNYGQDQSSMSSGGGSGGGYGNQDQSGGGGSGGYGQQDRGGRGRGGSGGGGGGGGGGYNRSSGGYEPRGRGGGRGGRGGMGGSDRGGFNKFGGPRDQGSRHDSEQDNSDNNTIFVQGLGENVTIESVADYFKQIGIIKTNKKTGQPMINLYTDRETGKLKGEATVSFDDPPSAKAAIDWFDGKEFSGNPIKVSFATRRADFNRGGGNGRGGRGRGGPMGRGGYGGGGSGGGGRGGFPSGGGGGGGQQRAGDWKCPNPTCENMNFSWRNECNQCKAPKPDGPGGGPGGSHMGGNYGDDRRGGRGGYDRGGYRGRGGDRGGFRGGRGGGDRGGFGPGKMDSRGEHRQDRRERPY

Biological target: FUS, endogenous in HEK293 (human (endogenous in HEK293)) (UniProt P35637)
Assay: co-IP; HEK293 lysates after sonication (sheared chromatin), immunoprecipitated with anti-FUS antibody or control IgG, Western blot for the endogenous partners; FUS-SAFB1 also tested with RNase treatment of the immune complexes

- binding: binds
B1: Matrin3, endogenous in HEK293 (protein, UniProt P43243 1-847)
chain: MSKSFQQSSLSRDSQGHGRDLSAAGIGLLAAATQSLSMPASLGRMNQGTARLASLMNLGMSSSLNQQGAHSALSSASTSSHNLQSIFNIGSRGPLPLSSQHRGDADQASNILASFGLSARDLDELSRYPEDKITPENLPQILLQLKRRRTEEGPTLSYGRDGRSATREPPYRVPRDDWEEKRHFRRDSFDDRGPSLNPVLDYDHGSRSQESGYYDRMDYEDDRLRDGERCRDDSFFGETSHNYHKFDSEYERMGRGPGPLQERSLFEKKRGAPPSSNIEDFHGLLPKGYPHLCSICDLPVHSNKEWSQHINGASHSRRCQLLLEIYPEWNPDNDTGHTMGDPFMLQQSTNPAPGILGPPPPSFHLGGPAVGPRGNLGAGNGNLQGPRHMQKGRVETSRVVHIMDFQRGKNLRYQLLQLVEPFGVISNHLILNKINEAFIEMATTEDAQAAVDYYTTTPALVFGKPVRVHLSQKYKRIKKPEGKPDQKFDQKQELGRVIHLSNLPHSGYSDSAVLKLAEPYGKIKNYILMRMKSQAFIEMETREDAMAMVDHCLKKALWFQGRCVKVDLSEKYKKLVLRIPNRGIDLLKKDKSRKRSYSPDGKESPSDKKSKTDGSQKTESSTEGKEQEEKSGEDGEKDTKDDQTEQEPNMLLESEDELLVDEEEAAALLESGSSVGDETDLANLGDVASDGKKEPSDKAVKKDGSASAAAKKKLKKVDKIEELDQENEAALENGIKNEENTEPGAESSENADDPNKDTSENADGQSDENKDDYTIPDEYRIGPYQPNVPVGIDYVIPKTGFYCKLCSLFYTNEEVAKNTHCSSLPHYQKLKKFLNKLAEERRQKKET
